Measurements as given in the supplement of paper PMC10849652.
The list shows a part of the results.

By UniProt entry, the sequences of proteins in these tests, tags left out. Where a name states a change or a piece, a line headed by the entry shows the natural chain unless it says otherwise.
UniProt P98179: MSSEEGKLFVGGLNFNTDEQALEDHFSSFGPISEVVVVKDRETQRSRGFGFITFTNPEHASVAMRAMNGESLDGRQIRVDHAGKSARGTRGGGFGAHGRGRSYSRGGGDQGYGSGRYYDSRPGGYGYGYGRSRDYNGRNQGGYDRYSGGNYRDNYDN
UniProt Q15291, whole entry, looked up: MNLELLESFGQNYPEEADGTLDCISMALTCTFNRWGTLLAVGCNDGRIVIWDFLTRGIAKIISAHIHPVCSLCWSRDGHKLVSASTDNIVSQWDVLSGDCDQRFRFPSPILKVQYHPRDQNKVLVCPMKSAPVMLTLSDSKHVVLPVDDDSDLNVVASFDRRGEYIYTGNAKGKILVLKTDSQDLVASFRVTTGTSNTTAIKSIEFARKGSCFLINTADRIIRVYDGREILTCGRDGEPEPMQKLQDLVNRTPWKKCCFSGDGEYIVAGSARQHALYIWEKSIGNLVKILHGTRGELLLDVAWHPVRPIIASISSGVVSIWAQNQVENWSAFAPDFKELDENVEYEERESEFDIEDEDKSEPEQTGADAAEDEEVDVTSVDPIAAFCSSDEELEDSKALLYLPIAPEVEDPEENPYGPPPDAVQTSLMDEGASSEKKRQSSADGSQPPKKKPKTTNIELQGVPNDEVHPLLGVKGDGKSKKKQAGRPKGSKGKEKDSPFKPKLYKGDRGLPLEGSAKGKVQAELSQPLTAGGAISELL
UniProt Q15276: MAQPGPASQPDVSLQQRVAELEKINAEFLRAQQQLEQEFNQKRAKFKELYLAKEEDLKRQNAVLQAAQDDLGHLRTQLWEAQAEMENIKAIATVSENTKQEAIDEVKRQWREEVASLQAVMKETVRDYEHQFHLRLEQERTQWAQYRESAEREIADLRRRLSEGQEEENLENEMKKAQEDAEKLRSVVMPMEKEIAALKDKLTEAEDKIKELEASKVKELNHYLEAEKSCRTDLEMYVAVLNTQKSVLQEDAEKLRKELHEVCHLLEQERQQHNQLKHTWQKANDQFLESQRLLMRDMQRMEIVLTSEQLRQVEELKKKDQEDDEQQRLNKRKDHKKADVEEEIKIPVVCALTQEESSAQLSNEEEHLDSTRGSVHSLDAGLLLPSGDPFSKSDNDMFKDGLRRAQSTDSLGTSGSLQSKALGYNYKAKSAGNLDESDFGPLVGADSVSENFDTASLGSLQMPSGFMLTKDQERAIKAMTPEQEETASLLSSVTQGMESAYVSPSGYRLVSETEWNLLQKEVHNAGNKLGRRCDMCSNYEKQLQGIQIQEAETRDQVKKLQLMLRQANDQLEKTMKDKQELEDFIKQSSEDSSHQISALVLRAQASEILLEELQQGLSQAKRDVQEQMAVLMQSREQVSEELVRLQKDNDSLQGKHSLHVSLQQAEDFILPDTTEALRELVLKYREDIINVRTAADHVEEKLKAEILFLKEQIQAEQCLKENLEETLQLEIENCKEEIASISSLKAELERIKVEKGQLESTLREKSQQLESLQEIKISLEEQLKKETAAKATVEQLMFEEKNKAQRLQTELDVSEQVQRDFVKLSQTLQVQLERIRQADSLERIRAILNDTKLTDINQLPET
UniProt Q96B01: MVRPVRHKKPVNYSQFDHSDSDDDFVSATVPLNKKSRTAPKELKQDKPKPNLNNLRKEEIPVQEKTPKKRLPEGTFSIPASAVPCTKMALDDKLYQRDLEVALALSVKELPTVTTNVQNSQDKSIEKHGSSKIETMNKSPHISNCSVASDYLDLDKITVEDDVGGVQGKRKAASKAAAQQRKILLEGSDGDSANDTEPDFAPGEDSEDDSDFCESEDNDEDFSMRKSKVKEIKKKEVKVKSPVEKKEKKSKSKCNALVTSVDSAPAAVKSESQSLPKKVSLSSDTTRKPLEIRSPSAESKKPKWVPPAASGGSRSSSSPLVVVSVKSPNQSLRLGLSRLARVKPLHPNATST
UniProt Q9ULC3: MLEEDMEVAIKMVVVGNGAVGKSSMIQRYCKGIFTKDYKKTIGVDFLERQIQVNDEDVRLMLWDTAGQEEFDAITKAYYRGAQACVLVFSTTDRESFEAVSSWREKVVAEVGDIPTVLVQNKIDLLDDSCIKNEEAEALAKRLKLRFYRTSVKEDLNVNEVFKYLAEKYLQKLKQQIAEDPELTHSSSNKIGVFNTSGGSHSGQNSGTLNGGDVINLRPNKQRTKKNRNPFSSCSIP
UniProt P51149, whole entry, looked up: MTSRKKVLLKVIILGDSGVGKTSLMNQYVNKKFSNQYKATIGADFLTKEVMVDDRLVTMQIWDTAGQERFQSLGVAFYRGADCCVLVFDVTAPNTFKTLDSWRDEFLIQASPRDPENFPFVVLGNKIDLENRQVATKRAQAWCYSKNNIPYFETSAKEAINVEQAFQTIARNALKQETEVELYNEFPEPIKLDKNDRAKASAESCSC
UniProt Q8TEU7: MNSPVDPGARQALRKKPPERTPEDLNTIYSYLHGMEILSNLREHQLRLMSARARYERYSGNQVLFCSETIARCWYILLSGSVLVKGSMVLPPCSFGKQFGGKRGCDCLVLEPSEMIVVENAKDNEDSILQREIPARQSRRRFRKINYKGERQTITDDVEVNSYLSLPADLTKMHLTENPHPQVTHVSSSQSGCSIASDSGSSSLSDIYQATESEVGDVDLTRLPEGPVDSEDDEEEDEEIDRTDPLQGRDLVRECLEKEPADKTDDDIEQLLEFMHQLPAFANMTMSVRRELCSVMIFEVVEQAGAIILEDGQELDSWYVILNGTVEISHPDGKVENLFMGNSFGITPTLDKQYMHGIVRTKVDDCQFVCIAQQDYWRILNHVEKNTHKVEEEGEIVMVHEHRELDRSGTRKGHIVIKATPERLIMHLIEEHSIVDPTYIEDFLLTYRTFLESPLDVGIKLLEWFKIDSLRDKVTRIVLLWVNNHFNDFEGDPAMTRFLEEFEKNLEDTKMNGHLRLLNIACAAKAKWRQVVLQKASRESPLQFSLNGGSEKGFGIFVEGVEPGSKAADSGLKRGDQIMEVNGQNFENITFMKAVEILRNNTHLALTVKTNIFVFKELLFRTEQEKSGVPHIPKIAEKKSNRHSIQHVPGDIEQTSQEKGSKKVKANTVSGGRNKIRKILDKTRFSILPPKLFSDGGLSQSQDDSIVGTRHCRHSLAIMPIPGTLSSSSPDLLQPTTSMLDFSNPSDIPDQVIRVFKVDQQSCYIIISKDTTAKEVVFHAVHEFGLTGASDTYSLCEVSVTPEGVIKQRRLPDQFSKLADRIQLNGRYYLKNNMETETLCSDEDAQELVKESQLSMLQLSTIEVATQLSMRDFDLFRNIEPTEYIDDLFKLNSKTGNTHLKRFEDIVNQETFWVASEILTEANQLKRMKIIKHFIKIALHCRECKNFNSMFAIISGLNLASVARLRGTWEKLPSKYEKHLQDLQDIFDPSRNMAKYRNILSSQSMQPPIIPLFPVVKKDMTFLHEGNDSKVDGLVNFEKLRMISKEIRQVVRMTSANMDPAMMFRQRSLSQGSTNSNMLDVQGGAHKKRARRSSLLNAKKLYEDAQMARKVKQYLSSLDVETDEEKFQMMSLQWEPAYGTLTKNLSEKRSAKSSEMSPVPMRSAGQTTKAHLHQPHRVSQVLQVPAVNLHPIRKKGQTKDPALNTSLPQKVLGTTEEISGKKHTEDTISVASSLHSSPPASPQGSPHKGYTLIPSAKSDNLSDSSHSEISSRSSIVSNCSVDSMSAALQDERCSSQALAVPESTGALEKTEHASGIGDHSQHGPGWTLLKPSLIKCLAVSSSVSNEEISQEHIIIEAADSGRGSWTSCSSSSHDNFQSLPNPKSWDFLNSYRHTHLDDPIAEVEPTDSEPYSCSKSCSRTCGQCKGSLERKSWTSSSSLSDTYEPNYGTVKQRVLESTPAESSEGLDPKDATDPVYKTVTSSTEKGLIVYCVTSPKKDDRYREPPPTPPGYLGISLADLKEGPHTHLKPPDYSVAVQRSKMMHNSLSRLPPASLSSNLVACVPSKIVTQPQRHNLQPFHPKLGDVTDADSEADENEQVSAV
UniProt Q8WZA2: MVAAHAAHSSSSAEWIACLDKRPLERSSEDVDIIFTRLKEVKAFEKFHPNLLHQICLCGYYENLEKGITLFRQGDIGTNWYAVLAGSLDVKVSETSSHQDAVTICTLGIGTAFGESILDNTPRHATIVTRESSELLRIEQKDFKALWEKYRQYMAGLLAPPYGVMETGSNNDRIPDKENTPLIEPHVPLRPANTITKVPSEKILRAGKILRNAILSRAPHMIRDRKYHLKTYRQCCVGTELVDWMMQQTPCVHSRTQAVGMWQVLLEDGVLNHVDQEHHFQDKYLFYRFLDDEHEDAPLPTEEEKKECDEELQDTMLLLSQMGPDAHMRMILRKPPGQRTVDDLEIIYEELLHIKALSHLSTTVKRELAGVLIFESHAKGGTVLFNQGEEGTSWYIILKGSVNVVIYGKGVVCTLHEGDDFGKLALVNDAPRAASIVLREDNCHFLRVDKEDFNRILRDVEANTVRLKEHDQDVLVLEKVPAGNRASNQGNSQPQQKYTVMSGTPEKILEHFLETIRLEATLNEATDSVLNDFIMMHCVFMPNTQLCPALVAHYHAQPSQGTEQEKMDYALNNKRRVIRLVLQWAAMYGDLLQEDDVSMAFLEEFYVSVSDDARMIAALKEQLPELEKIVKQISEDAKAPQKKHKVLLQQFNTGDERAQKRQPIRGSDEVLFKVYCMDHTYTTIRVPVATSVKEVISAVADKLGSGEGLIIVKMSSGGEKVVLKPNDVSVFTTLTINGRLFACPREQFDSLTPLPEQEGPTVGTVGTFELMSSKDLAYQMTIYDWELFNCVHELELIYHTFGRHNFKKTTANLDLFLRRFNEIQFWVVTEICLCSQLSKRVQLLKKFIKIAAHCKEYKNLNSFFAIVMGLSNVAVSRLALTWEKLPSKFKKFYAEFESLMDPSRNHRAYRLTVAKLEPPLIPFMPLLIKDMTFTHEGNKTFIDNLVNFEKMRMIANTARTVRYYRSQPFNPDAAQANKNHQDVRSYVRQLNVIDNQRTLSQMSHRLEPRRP
UniProt Q9P0K7: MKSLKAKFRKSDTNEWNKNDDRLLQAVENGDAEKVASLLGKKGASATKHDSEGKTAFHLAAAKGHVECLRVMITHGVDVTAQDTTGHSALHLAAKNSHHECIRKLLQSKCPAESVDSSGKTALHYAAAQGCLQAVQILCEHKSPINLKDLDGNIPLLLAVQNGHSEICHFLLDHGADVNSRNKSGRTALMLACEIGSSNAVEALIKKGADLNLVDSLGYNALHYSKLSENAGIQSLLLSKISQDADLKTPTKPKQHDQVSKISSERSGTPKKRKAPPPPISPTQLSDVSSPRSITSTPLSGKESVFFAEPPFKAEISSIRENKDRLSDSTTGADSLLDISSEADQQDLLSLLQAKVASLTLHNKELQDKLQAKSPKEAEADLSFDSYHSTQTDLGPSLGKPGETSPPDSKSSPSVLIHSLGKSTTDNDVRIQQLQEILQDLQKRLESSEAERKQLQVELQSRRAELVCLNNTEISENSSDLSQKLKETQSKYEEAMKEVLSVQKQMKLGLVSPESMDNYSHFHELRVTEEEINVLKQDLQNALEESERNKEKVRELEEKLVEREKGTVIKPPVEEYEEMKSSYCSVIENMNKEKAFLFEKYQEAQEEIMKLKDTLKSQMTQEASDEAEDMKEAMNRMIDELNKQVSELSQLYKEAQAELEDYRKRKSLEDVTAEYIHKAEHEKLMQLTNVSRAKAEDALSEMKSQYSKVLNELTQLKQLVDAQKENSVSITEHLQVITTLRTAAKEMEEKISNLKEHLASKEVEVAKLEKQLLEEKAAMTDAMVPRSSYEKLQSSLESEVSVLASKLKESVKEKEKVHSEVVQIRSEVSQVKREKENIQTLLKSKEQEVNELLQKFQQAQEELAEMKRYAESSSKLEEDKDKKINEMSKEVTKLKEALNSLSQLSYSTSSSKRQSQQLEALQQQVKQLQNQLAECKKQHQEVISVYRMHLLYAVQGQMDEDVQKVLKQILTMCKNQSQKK
UniProt Q16576, whole entry, looked up: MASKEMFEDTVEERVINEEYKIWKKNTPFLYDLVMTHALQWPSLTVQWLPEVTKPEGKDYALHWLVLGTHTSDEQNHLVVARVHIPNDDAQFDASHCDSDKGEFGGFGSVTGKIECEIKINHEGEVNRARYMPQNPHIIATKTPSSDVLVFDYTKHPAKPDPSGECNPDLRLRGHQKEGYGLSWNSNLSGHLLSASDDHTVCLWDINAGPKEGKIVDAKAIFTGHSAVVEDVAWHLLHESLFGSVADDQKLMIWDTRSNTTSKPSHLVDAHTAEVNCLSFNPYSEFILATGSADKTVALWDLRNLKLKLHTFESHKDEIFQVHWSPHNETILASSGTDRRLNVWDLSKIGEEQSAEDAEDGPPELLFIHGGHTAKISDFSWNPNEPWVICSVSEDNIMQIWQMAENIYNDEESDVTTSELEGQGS
UniProt P20336: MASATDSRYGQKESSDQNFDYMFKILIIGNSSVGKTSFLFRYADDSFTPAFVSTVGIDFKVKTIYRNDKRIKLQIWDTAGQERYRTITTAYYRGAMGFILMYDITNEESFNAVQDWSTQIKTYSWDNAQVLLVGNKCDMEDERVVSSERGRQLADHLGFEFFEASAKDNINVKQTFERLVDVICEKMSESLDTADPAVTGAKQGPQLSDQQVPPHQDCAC

Assays:
Assay in all cases: log2 fold change, soluble protein after heating vs DMSO (PISA); higher = thermal stabilisation; K562 cells, 10 uM, 30 min; active = over 0.2 and 3.5 SD of the protein, either way, in both replicates (recomputed)
[1] = compound: NC(=O)Nc1cc(-c2cccc(F)c2)sc1C(=O)N[C@H]1CCCNC1
Outline: (§1)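 Quantification of soluble protein used TMTpro 16plex LC-MS/MS, with channel sums equalised. Samples were the supernatant after 21,000xg for 90 min of pooled aliquots from K562 cells (2×10^6 cells/mL) treated with 10 μM compound for 30 min, heated for 3 min over 48°C-58°C, and extracted in PBS with 0.5% NP-40 at 4°C. Values, from duplicates, describe thermal stability against control samples on a log2 fold-change scale.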

[2] = compound: NC(=O)c1cnc(N[C@@H]2CCCC[C@@H]2N)nc1Nc1cccc(-n2nccn2)c1
Outline: as §1

[3] = compound: NC1(c2ccc(-c3nc4ccn5c(=O)[nH]nc5c4cc3-c3ccccc3)cc2)CCC1
Outline: as §1

[4] = compound: NCC(=O)Nc1ccc(-n2nc(C(F)(F)F)cc2-c2ccc3c(ccc4ccccc43)c2)cc1
Outline: as §1

entinostat = compound: Nc1ccccc1NC(=O)c1ccc(CNC(=O)OCc2cccnc2)cc1 [entinostat]
Outline: as §1

vorinostat = compound: O=C(CCCCCCC(=O)Nc1ccccc1)NO [vorinostat]
Outline: as §1

citarinostat = compound: O=C(CCCCCCNC(=O)c1cnc(N(c2ccccc2)c2ccccc2Cl)nc1)NO [citarinostat]
Outline: as §1

silmitasertib = compound: O=C(O)c1ccc2c(c1)nc(Nc1cccc(Cl)c1)c1ccncc12 [silmitasertib]
Outline: as §1

[5] = compound: O=C1NC(=O)C(c2cnc3ccccn23)=C1c1cn2c3c(cc(F)cc13)CN(C(=O)N1CCCCC1)CC2
Outline: as §1

[6] = compound: c1cc(OCCN2CCCCC2)cc(-c2n[nH]c3ccc(-c4nnc[nH]4)cc23)c1
Outline: as §1

Measured: log2 fold change

RBM3 (UniProt P98179)
inactive: [1] 0.037 | [2] 0.039 | [3] 0.415 | [4] 0.021 | entinostat -0.022 | vorinostat -0.024 | citarinostat -0.195 | silmitasertib 0.038 | [5] 0.122 | [6] -0.147

RBBP5 (UniProt Q15291)
inactive: [1] 0.074 | [2] 0.005 | [3] 0.03 | [4] 0.014 | entinostat -0.042 | vorinostat -0.035 | citarinostat 0 | silmitasertib 0.048 | [5] 0.036 | [6] -0.016

RABEP1 (UniProt Q15276)
inactive: [1] -0.058 | [2] -0.032 | [3] -0.009 | [4] -0.012 | entinostat -0.017 | vorinostat -0.053 | citarinostat 0.077 | silmitasertib -0.004 | [5] -0.104 | [6] -0.015

RANBP1 (UniProt P43487)
inactive: [1] -0.043 | [2] 0.008 | [3] -0.02 | [4] 0.053 | entinostat -0.02 | vorinostat 0.015 | citarinostat 0.02 | silmitasertib -0.008 | [5] 0.095 | [6] -0.001

RBBP5 isoform 2 (UniProt Q15291)
inactive: [1] -0.123 | [2] -0.223 | [3] 0.151 | [4] 0.02 | entinostat -0.249 | vorinostat 0.086 | citarinostat 0.033 | silmitasertib 0.14 | [5] -0.337 | [6] -0.153

RBM17 (UniProt Q96I25)
inactive: [1] 0.021 | [2] 0.037 | [3] 0.003 | [4] -0.07 | entinostat 0.08 | vorinostat 0.092 | citarinostat 0.056 | silmitasertib 0.036 | [5] 0.027 | [6] -0.127

RBBP4 (UniProt Q09028)
inactive: [1] -0.036 | [2] -0.054 | [3] 0.015 | [4] -0.02 | entinostat -0.027 | vorinostat -0.043 | citarinostat 0.059 | silmitasertib 0.006 | [5] -0.055 | [6] -0.019

RASSF5 (UniProt Q8WWW0)
inactive: [1] 0.069 | [2] 0.046 | [3] 0.004 | [4] -0.014 | entinostat -0.046 | vorinostat 0.009 | citarinostat 0.029 | silmitasertib -0.033 | [5] 0.107 | [6] -0.156

RAD51AP1 (UniProt Q96B01)
inactive: [1] 0.035 | [2] -0.03 | [3] -0.036 | [4] 0.016 | entinostat 0.063 | vorinostat -0.002 | citarinostat 0.116 | silmitasertib 0.026 | [5] -0.045 | [6] -0.046

RABIF (UniProt P47224)
inactive: [1] -0.05 | [2] -0.008 | [3] 0.031 | [4] 0.13 | entinostat -0.009 | vorinostat -0.018 | citarinostat 0.063 | silmitasertib -0.044 | [5] -0.004 | [6] -0.006

RBM28 (UniProt Q9NW13)
inactive: [1] 0.122 | [2] 0.009 | [3] -0.252 | entinostat -0.005 | citarinostat -0.022 | silmitasertib 0.137 | [5] 0.054 | [6] -0.09

RBIS (UniProt Q8N0T1)
inactive: [1] -0.021 | [2] -0.029 | [3] 0.02 | [4] 0.02 | entinostat 0.019 | vorinostat 0.014 | citarinostat 0.092 | silmitasertib -0.009 | [5] -0.002 | [6] -0.078

RAB40C (UniProt Q96S21)
inactive: [1] -0.006 | [2] 0.088 | [3] 0.079 | [4] 0.01 | entinostat -0.017 | vorinostat 0.346 | citarinostat 0.013 | silmitasertib 0.152 | [5] -0.103 | [6] 0.631

RAPGEF2, A0A2R8YGD3
inactive: [1] -0.203 | [2] -0.149 | [3] -0.079 | [4] -0.243 | entinostat 0.022 | vorinostat -0.05 | silmitasertib 0.018 | [5] 0.046

RAP1GAP isoform 4 (UniProt P47736)
inactive: [1] 0.038 | [2] -0.137 | [3] -0.506 | [4] -0.063 | entinostat 0.073 | vorinostat 0.118 | silmitasertib -0.207 | [5] 0.019

RBFOX2 isoform 8 (UniProt O43251)
inactive: [1] 0.035 | [2] 0.074 | [3] -0.04 | [4] -0.06 | entinostat 0.138 | vorinostat -0.04 | citarinostat 0.049 | silmitasertib 0.222 | [5] 0.032 | [6] -0.073

RAB23 (UniProt Q9ULC3)
inactive: [1] -0.065 | [2] 0.049 | [3] -0.083 | [4] -0.039 | entinostat -0.034 | vorinostat -0.01 | citarinostat -0.006 | silmitasertib 0.022 | [5] -0.03 | [6] 0.015

RBM26 isoform 2 (UniProt Q5T8P6)
inactive: [1] -0.001 | [2] 0.031 | [3] -0.135 | [4] -0.103 | entinostat 0.141 | vorinostat 0.103 | citarinostat 0.193 | silmitasertib -0.1 | [5] -0.05 | [6] 0.017

RAD18 (UniProt Q9NS91)
inactive: [1] 0.07 | [2] -0.066 | [3] 0.082 | [4] -0.159 | entinostat 0.097 | vorinostat 0.181 | silmitasertib 0.087 | [5] -0.243

RAB7A (UniProt P51149)
inactive: [1] -0.002 | [2] -0.009 | [3] -0.029 | [4] 0.016 | entinostat -0.026 | vorinostat -0.016 | citarinostat 0.015 | silmitasertib -0.019 | [5] -0.009 | [6] 0.004

2 successive entries from above, for reference:
RBM3 (UniProt P98179)
inactive: [1] 0.037 | [2] 0.039 | [3] 0.415 | [4] 0.021 | entinostat -0.022 | vorinostat -0.024 | citarinostat -0.195 | silmitasertib 0.038 | [5] 0.122 | [6] -0.147

RBBP5 (UniProt Q15291)
inactive: [1] 0.074 | [2] 0.005 | [3] 0.03 | [4] 0.014 | entinostat -0.042 | vorinostat -0.035 | citarinostat 0 | silmitasertib 0.048 | [5] 0.036 | [6] -0.016

(cont.)

RAP1B (UniProt F5GZG1)
inactive: [1] -0.036 | [2] -0.063 | [3] -0.013 | [4] -0.005 | entinostat -0.106 | citarinostat -0.125 | silmitasertib 0.062 | [5] -0.103 | [6] -0.101

RAMAC (UniProt Q9BTL3)
inactive: [1] -0.099 | [2] -0.021 | [3] 0.036 | [4] 0.029 | entinostat -0.043 | vorinostat -0.081 | citarinostat -0.052 | silmitasertib 0.002 | [5] -0.094 | [6] -0.073

RAB9A (UniProt P51151)
inactive: [1] 0.014 | [2] -0.026 | [4] -0.022 | entinostat 0 | vorinostat 0.035 | citarinostat 0.039 | silmitasertib -0.028 | [5] -0.032 | [6] -0.018
active: [3] -0.229

RAPGEF6 isoform 4 (UniProt Q8TEU7)
inactive: [1] 0.062 | [2] -0.015 | [3] -0.227 | [4] 0.131 | entinostat 0.034 | vorinostat 0.138 | citarinostat 0.059 | silmitasertib 0.323 | [5] 0.278 | [6] -0.086

RAPGEF4 (UniProt Q8WZA2)
inactive: [1] -0.095 | [2] -0.13 | [3] -0.054 | [4] -0.04 | entinostat -0.003 | citarinostat 0.161 | silmitasertib 0.125 | [5] -0.279 | [6] 0.127

RAB27B (UniProt O00194)
inactive: [1] 0.016 | [2] 0.092 | [3] 0.009 | [4] 0.046 | entinostat 0.027 | vorinostat -0.12 | citarinostat -0.033 | silmitasertib -0.025 | [6] -0.024

RALGAPA1 isoform 6 (UniProt Q6GYQ0)
inactive: [1] -0.1 | [2] -0.102 | [3] -0.117 | [4] -0.213 | entinostat 0.089 | citarinostat -0.05 | silmitasertib 0.042 | [5] -0.076 | [6] -0.086

RAD51C (UniProt O43502)
inactive: [1] -0.063 | [2] -0.027 | [3] -0.087 | [4] -0.036 | entinostat -0.028 | vorinostat 0.036 | citarinostat -0.03 | silmitasertib -0.005 | [5] -0.013 | [6] 0.036

RAI14 isoform 2 (UniProt Q9P0K7)
inactive: [1] -0.112 | [2] -0.197 | [3] -0.24 | [4] 0.037 | entinostat 0.166 | vorinostat 0.08 | silmitasertib 0.175 | [5] 0.064

RBBP7 (UniProt Q16576)
inactive: [1] -0.098 | [2] -0.094 | [3] 0.019 | entinostat 0.034 | citarinostat -0.067 | silmitasertib -0.006 | [5] 0.011 | [6] 0.007

RAB3A (UniProt P20336)
inactive: [1] -0.05 | [2] 0.03 | [3] 0.165 | [4] -0.057 | entinostat -0.017 | vorinostat 0.03 | citarinostat 0.023 | silmitasertib 0.087 | [5] -0.258 | [6] 0.017
